In patent US20210047411A1 (BIOND BIOLOGICS, published 2021) one finds binding data, which are given here for three molecules.

Protein sequences, listed by entry. Tags and fused reporters are not part of them. Residues count along the entry.
UniProt P10747, residues 19-144: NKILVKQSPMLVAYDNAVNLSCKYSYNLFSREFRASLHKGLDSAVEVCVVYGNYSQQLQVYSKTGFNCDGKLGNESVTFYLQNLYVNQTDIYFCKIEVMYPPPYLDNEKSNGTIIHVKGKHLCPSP

No constants are given. Whether binding was seen depends on the method and setting. Some entries that bind do so weakly or less than the wild type.

Test [1] concerns the target sCD28 in plasma of cancer patients (human) (UniProt P10747). Briefly: antibody on tosyl-activated magnetic beads mixed with cancer patient plasma; remaining sCD28 by ELISA.
Test [2] addresses sCD28 shed from activated human immune cells (human) (UniProt P10747). The test is described as follows: sandwich ELISA on supernatants of PHA-stimulated T cells and SEB-stimulated PBMCs; antibody 2 as capture antibody. A general note: An ELISA detects its analyte on a solid surface through an enzyme-linked reagent.
For test [3] the target is unchanged. The test is described as follows: sandwich ELISA on supernatants of PHA-stimulated T cells and SEB-stimulated PBMCs; antibody 1 as detection antibody.
Test [4] has as its target sCD28 in plasma of cancer patients (human) (UniProt P10747). The test is described as follows: about 1.5 µg antibody on magnetic beads mixed with plasma; remaining sCD28 by ELISA.
Test [5] shares this target. The test is described as follows: sandwich ELISA on 20 melanoma patient samples; antibody #1 for detection.
For test [6] the target is unchanged. The test is described as follows: sandwich ELISA on 20 melanoma patient samples; antibody #3 for capture.

B1: Antibody #2 (antibody, mouse IgG2b, kappa, V domains shown)
VH: QVQLQQSGAELARPGASVKLSCKASGYTFTSYWMQWIKKRPGQGLEWIGAIYPGDGDTRYTQKFKGKATLTADKSSTTAYMQLSSLASEDSAVYFCARNYRYSSFGYWGQGTLVTVSA
VL: DIVMTQSPSSLTVTAGEKVTLSCKSSQSLLNSGNQKNYLTWYQQKPGQPPQLLIYWASTRESGVPDRFTGSGSGTDFTLTISSVQAEDLAVYYCQSDYSYPLTFGAGTKLELKR
For B1, the binding entry in test [1] and in test [2] was “binds” in each case.

B2: Antibody #1 (antibody, mouse IgG1, kappa, V domains shown)
VH: QIQLVQSGPELKKPGETVKISCKASGYTLTNYGMNWVKQAPGKGLKWMGWINTYTGKPTYVDDFKGRFAFSLETSASTAYLQINNLKNEDTATYFCARGDANQQFAYWGQGTLVTVSA
VL: DIKMTQSPSSMYASLGERVTITCKASQDINSYLSWFQQKPGKSPKTLIYRANRLVDGVPSRFSGSGSGQDYSLTISSLEYDDMGIYYCLQYDEFPPTFGAGTKLELKR
Consider B2, for which the binding result in test [3], in test [4], in test [1] and in test [5] was “binds” each time.

B3: Antibody #3 (antibody, mouse IgG1, kappa, V domains shown)
VH: EVQLQQFGAELVKPGASVKISCKASGYTFTDYNMDWVKQSHGKSLEWIGDINPNYDSTAYNQKFMGKATLTVDKSSNTAYMELRSLTSEDTAVYYCARSSPYYDSNHFDYWGQGTSLTVSS
VL: QIVLTQSPAIMSASPGEKVTMTCSARSSINYMHWFQQKPGTSPKRWIYDTSKLASGVPARFSGSGSGTSYSLTISNMEAEDAATYYCHQRNSYPFTFGSGTKLEIKR
B3: the binding result in test [6] is given as “binds”.
